Patent US7214684B2, “Methods for the treatment of allergic rhinitis” (Sepracor Inc., priority 1994, dated 2007)

Experiments:
[1] = test system: spleen cells (lymphocytes) stimulated with concanavalin A; assay: cells; conditions: Mus musculus, Lymphocyte, read-out: Inhibition of Concanavalin A Induced Stimulation of Lymphocytes (IC50)
[2] = test system: spleen cells (lymphocytes) stimulated with concanavalin A; conditions: DCL versus loratadine, description

Clc1ccc2c(c1)CCc1cccnc1C2=C1CCNCC1 [DCL, 8-chloro-6,11-dihydro-11-(4-piperidylidene)-5H-benzo[5,6]cyclohepta[1,2-b]pyridine]
IC50 [1]: 5.6 µM | activity in tumor promotion compared to loratadine (statement in words) [2]: five to seven times less active
